Experiments:
OATP1B1 [1] = target: T1, OATP1B1 (Homo sapiens, UniProt Q9Y6L6); test: Competitive counterflow (CCF) assay, efflux of preloaded [3H]-EβG in OATP1B1-overexpressing HEK293 cells; details: 1, 10 and 100 μmol/L
T1 sequence (Q9Y6L6 1-691): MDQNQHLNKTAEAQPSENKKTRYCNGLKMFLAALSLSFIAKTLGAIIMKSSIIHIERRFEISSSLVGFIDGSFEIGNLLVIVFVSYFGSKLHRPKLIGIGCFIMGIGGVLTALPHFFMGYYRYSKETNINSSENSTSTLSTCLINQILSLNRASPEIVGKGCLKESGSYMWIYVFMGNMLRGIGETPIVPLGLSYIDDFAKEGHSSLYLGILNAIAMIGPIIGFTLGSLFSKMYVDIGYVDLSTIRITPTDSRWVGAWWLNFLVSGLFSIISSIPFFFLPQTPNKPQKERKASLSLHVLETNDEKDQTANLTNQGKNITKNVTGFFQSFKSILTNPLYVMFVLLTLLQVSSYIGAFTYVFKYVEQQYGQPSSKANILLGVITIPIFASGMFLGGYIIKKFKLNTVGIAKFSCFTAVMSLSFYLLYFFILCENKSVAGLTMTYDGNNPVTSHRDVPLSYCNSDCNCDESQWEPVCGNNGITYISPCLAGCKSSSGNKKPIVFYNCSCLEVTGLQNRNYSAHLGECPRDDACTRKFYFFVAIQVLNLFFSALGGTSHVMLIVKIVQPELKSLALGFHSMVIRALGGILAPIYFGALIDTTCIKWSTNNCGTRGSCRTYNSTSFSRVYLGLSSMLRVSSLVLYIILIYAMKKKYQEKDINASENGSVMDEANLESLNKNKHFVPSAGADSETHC
Protocol: Cellular accumulation assays were performed in human embryonic kidney cells (HEK293; RRID: CVCL_0045) that were genetically engineered to overexpress human OATP1B1 ([23]–[25]). Cell lines were authenticated by Applied Biosystems AmpFISTR Identifiler testing with PCR amplification. […] All cells were used within passage 30 and verified to be Mycoplasma-free using the MycoAlert Mycoplasma Detection Kit (Lonza). At 80% to 90% confluency, cells were seeded on poly-D-lysine–coated 96-well plates 24 hours prior to the assay (2,500 cells/well), and expression of OATP1B1 was induced with 1 μg/mL doxycycline in phenol red–free DMEM.
The CCF assay uses OATP1B1-overexpressing HEK293 cells seeded and cultured as described above. During the study, cells were preincubated at room temperature (∼ 20°C) with 0.01 μmol/L EβG in prewarmed serum-free and phenol red–free DMEM for 1 hour. Following preincubation, each well was spiked with 1 μL of a stock solution containing 0.1, 1, or 10 mmol/L of positive control (EβG), negative control (glucose), test compound dissolved in Dimethylsulfoxide (DMSO), or DMSO only as a vehicle control. […] Total radioactivity was determined on a MicroBeta microplate scintillation counter (PerkinElmer), and the resulting counts were then normalized to total protein as determined using a Pierce protein assay (Thermo Fisher Scientific).

OATP1B1 [2] = details: cited from earlier work

SMILES	pattern of efflux vs concentration in CCF assay (OATP1B1 [1])	IC50 (OATP1B1 [2]) [nM]
COc1cc(OC)cc(N(CCNC(C)C)c2ccc3ncc(-c4cnn(C)c4)nc3c2)c1 [Erdafitinib]	clearly dependent on concentration	–
C=CC(=O)N1CC[C@H](n2nc(C#Cc3cc(OC)cc(OC)c3)c3c(N)ncnc32)C1 [Futibatinib]	solely at lower concentrations	2840

Source: publication PMC11417675, “Systematic Evaluation of Tyrosine Kinase Inhibitors as OATP1B1 Substrates Using a Competitive Counterflow Screen” (Cancer Research Communications, 2024)
